This is one part of the list.
These targets were tested with CN1CCC(CNc2ccc3ncc(-c4cccc(OC(F)(F)F)c4)n3n2)CC1 (assay: log2 fold change, soluble protein after heating vs DMSO (PISA); higher = thermal stabilisation; K562 cells, 10 uM, 30 min; active = over 0.2 and 3.5 SD of the protein, either way, in both replicates (recomputed)).
Outline: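 Thermal stability values are relative to control samples and come from duplicates. They are expressed as log2 fold changes. For measurement, K562 cells (2×10^6 cells/mL) received 10 μM compound for 30 min, and aliquots were heated for 3 min over 48°C-58°C, pooled, and extracted at 4°C in PBS with 0.5% NP-40. Soluble protein, the supernatant after 21,000xg for 90 min, was quantified by TMTpro 16plex LC-MS/MS with equalised channel sums.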

Protein sequences, listed by entry. Tags and fused reporters are not part of them. Lines headed by an entry give the natural chain unless they say otherwise; changes in a name come on top.
UniProt Q15363: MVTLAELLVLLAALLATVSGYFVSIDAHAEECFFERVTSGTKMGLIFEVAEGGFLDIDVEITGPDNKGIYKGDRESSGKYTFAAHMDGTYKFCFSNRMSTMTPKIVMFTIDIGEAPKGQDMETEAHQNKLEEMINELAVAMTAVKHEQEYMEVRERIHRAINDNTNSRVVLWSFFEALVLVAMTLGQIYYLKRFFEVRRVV
UniProt Q8TDI8: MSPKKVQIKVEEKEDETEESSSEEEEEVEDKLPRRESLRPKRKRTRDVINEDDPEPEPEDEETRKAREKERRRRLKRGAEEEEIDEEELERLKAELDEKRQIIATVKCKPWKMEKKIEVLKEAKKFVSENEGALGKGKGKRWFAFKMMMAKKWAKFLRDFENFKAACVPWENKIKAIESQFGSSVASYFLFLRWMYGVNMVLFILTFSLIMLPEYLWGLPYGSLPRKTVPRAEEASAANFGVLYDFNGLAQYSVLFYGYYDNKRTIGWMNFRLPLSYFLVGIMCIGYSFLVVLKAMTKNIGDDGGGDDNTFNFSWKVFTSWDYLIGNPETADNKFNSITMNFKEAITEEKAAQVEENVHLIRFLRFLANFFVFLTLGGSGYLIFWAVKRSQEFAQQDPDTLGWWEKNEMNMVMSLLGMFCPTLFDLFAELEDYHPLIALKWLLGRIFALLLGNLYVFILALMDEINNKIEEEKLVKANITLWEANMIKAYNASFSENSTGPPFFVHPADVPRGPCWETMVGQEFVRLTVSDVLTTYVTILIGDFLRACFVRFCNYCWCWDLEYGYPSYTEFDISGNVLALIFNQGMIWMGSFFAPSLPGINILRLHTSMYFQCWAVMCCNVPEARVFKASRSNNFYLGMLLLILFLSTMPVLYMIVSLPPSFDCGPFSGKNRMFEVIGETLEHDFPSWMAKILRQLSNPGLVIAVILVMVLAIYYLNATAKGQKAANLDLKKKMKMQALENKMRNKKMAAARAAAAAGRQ
UniProt Q12893: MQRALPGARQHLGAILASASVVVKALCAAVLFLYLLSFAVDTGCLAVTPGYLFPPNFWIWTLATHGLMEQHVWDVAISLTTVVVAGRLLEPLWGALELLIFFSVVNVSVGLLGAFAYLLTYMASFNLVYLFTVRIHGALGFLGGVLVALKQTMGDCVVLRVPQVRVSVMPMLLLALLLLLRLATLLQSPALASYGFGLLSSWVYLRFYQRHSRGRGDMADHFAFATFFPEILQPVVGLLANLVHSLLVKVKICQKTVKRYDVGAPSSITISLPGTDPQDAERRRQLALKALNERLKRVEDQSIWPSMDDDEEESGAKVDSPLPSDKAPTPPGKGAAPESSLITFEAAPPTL
UniProt Q9NX00: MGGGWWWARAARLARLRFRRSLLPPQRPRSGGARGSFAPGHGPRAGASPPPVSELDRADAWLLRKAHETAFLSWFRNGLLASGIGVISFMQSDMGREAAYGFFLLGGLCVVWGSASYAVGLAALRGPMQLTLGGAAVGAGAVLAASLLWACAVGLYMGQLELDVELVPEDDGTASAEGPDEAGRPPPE
UniProt Q9H1E5: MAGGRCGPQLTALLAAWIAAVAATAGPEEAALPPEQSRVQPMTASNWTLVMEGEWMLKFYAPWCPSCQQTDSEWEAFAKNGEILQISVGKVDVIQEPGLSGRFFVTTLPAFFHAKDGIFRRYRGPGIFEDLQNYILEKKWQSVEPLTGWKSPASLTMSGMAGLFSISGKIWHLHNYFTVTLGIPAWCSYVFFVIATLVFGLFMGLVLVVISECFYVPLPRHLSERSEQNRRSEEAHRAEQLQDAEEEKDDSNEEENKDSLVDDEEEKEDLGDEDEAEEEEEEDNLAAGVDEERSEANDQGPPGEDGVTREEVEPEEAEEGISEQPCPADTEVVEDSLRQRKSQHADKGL
UniProt Q13445: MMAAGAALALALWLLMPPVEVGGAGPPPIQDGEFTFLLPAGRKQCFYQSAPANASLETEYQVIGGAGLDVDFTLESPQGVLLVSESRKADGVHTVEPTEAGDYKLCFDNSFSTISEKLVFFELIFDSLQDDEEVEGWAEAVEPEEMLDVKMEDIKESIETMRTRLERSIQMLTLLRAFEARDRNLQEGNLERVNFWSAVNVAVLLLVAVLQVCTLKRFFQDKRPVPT
UniProt Q0P6H9: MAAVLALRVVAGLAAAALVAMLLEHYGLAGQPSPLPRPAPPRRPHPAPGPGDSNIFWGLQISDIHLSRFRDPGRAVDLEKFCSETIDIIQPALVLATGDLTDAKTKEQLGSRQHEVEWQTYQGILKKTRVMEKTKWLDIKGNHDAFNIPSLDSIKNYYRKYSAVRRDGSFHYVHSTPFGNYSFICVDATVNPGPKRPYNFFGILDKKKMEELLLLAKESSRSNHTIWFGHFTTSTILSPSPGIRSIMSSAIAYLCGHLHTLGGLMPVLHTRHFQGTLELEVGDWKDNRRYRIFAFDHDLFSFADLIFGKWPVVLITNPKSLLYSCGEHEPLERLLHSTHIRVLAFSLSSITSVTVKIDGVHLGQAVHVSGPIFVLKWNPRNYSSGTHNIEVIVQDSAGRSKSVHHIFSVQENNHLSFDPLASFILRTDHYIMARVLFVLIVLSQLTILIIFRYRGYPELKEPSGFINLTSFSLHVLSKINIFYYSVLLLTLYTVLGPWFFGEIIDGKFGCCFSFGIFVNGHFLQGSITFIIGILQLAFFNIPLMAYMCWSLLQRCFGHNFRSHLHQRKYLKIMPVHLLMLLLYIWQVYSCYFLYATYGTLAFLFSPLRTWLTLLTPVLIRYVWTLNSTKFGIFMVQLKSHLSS
UniProt Q5BJF2, whole entry, looked up: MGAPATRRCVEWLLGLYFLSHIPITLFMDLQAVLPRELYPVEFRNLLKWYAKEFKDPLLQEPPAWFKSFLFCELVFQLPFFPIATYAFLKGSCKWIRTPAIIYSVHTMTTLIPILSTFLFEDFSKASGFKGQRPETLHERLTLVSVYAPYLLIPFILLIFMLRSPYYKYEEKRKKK
UniProt Q9H7F4: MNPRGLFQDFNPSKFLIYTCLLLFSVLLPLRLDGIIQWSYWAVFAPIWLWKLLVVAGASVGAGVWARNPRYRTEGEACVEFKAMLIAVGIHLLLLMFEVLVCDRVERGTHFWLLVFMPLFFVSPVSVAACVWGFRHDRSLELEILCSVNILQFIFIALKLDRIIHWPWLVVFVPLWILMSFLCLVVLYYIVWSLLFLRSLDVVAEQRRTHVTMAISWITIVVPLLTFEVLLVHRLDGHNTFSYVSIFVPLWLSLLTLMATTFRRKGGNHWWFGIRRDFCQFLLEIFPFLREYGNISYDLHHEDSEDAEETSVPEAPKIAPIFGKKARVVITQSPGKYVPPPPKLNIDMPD
UniProt Q96SK2: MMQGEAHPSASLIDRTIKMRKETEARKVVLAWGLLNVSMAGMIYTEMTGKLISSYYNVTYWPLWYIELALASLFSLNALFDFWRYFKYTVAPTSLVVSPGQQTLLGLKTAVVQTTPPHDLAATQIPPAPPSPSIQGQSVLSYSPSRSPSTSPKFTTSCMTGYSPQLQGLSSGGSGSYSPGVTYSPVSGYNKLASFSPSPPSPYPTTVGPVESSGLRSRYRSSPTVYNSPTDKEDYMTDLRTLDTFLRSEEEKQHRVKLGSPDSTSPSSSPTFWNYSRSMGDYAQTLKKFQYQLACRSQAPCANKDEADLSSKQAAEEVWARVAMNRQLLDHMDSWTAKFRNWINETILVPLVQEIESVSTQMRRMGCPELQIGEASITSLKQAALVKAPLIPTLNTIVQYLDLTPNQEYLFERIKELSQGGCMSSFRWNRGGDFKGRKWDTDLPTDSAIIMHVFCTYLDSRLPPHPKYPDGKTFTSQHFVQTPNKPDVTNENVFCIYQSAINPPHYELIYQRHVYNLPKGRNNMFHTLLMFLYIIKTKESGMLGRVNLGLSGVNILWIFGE
UniProt Q9H3N1: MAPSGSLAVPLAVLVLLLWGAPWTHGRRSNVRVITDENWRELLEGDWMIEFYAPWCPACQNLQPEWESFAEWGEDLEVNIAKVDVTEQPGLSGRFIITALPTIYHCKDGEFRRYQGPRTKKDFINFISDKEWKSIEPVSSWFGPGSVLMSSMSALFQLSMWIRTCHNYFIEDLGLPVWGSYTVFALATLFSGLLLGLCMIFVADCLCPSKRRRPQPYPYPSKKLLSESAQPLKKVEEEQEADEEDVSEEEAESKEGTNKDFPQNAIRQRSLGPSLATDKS
UniProt Q9Y3Q3: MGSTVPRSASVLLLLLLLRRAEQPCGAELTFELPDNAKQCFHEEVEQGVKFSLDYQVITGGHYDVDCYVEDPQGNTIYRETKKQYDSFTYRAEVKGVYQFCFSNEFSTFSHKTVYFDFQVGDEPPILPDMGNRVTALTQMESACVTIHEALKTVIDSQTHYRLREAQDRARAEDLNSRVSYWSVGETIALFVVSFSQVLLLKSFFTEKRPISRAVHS
UniProt P63313: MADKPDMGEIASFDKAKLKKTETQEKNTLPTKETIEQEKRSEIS
UniProt Q9NVH6: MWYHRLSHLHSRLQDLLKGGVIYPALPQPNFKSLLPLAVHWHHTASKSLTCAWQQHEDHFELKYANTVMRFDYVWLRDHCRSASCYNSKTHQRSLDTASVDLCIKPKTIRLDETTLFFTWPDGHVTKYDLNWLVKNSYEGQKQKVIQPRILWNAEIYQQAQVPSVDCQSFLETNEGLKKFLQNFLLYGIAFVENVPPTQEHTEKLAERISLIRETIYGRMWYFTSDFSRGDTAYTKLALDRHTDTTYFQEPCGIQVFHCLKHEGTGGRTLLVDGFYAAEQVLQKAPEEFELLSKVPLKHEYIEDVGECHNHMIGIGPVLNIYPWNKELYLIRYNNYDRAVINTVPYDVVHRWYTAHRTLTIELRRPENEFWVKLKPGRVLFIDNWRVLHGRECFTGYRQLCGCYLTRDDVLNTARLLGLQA
UniProt P28289: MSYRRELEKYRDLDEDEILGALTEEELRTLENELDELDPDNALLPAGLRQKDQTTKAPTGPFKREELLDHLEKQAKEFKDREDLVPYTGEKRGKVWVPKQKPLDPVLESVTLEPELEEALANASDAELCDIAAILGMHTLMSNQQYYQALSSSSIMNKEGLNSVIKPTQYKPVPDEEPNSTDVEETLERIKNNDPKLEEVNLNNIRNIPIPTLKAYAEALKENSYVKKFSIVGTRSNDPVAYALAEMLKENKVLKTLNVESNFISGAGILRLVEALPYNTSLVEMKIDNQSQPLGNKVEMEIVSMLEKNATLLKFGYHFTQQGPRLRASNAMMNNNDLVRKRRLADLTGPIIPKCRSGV
UniProt Q9NZR1: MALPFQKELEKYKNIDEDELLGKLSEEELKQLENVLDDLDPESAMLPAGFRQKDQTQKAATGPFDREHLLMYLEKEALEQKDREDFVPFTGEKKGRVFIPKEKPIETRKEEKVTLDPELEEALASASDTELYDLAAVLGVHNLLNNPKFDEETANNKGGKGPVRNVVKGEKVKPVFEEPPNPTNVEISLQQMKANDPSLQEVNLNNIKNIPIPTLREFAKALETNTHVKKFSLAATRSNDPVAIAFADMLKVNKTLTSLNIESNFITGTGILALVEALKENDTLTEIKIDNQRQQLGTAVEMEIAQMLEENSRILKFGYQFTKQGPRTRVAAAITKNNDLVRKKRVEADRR
UniProt A5PLL7: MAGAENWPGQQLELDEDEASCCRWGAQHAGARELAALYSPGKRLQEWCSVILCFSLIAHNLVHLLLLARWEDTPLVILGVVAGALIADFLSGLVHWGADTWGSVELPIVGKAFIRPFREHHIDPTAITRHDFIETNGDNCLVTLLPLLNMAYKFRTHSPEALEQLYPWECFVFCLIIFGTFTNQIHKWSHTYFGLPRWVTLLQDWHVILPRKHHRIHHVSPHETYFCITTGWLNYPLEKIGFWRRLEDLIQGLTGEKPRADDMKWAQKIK
UniProt P49755: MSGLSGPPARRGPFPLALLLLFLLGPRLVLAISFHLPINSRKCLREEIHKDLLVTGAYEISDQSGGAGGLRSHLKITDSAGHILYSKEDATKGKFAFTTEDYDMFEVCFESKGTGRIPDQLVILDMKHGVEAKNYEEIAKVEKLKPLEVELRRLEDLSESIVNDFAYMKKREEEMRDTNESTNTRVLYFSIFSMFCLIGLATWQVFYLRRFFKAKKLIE
UniProt Q9BVT8: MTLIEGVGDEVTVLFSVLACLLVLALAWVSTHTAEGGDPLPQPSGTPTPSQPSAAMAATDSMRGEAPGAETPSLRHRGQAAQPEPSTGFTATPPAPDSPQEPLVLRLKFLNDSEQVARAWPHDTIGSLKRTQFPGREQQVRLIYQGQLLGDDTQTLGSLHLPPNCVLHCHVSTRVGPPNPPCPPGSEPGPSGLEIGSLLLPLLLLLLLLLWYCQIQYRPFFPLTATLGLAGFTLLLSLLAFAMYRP
UniProt Q9NYL9: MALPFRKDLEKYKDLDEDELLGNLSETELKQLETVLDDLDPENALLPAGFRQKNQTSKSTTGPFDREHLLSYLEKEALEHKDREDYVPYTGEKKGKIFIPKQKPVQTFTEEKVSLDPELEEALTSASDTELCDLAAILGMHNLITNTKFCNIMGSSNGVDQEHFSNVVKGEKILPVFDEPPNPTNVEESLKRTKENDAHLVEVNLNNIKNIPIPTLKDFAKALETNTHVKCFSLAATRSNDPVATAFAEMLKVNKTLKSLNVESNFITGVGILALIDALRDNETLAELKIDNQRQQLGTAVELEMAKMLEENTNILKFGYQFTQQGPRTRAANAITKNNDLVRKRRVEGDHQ

| Target | log2 fold change |
| --- | --- |
| TM9SF3 (UniProt Q9HD45) | inactive: -0.012 |
| TMA16 (UniProt Q96EY4) | inactive: 0.252 |
| TMEM167A (UniProt Q8TBQ9) | inactive: 0.023 |
| TMED2 (UniProt Q15363) | inactive: -0.039 |
| TMC1 (UniProt Q8TDI8) | inactive: 0.019 |
| TMEM115 (UniProt Q12893) | inactive: 0.058 |
| TMEM160 (UniProt Q9NX00) | inactive: -0.036 |
| TMCO1 (UniProt Q9UM00) | inactive: 0.004 |
| TLN1 (UniProt Q9Y490) | inactive: -0.032 |
| TMA7 (UniProt Q9Y2S6) | inactive: 0.002 |
| TMX4 (UniProt Q9H1E5) | inactive: 0.035 |
| TMED1 (UniProt Q13445) | inactive: 0.003 |
| TMEM245 (UniProt Q9H330) | inactive: 0.027 |
| TMEM68 (UniProt Q96MH6) | inactive: -0.02 |
| TMEM199 (UniProt Q8N511) | inactive: 0.028 |
| TMEM62 (UniProt Q0P6H9) | inactive: -0.002 |
| TMEM97 (UniProt Q5BJF2) | inactive: 0.105 |
| TMEM185B (UniProt Q9H7F4) | inactive: -0.192 |
| TMEM209 (UniProt Q96SK2) | inactive: -0.106 |

| Target | log2 fold change |
| --- | --- |
| TMEM63A (UniProt O94886) | inactive: -0.062 |
| TMEM41B (UniProt Q5BJD5) | inactive: 0.05 |
| TMX1 (UniProt Q9H3N1) | inactive: 0.058 |
| TMED3 (UniProt Q9Y3Q3) | inactive: -0.054 |
| TM2D3 (UniProt Q9BRN9) | inactive: 0.087 |
| TMEM87A (UniProt Q8NBN3) | inactive: -0.048 |
| TMPO (UniProt P42167) | inactive: 0.051 |
| TMSB10 (UniProt P63313) | inactive: 0.089 |
| TMEM33 (UniProt P57088) | inactive: 0.103 |
| TMEM65 (UniProt Q6PI78) | inactive: 0.013 |
| TMED4 (UniProt Q7Z7H5) | inactive: -0.017 |
| TMLHE isoform 8 (UniProt Q9NVH6) | inactive: -0.082 |
| TMEM11 (UniProt P17152) | inactive: -0.01 |
| TMOD1 (UniProt P28289) | inactive: -0.028 |
| TMOD2 (UniProt Q9NZR1) | inactive: 0.045 |
| TMEM189 (UniProt A5PLL7) | inactive: -0.001 |
| TMED10 (UniProt P49755) | inactive: -0.059 |
| TMUB1 (UniProt Q9BVT8) | inactive: 0.033 |
| TMOD3 (UniProt Q9NYL9) | inactive: 0.027 |

Copied from the list.
Entry of TMED10 (UniProt P49755) under log2 fold change: inactive: -0.059
Entry of TMOD1 (UniProt P28289) under log2 fold change: inactive: -0.028

— the supplement of paper PMC10849652
